Test results taken from patent US20220411514A1, “ANTI-GAL3 ANTIBODIES AND METHODS OF USE FOR INSULIN RESISTANCE” (TrueBinding, Inc., priority 2021, published 2022).
Results are given in words; binding and its absence hold for the method and conditions named. Some entries that bind do so weakly or less than the wild type.

Chains of the proteins cited; added tags and fusions are not shown. Lines headed by an entry give the natural chain unless they say otherwise; changes in a name come on top.
UniProt P17931: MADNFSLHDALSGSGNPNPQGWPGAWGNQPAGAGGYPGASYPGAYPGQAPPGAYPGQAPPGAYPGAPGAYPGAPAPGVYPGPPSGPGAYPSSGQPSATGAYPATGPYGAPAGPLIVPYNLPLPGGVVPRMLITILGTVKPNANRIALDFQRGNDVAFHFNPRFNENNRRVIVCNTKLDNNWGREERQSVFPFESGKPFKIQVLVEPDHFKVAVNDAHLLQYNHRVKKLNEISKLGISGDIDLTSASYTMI
UniProt P11166: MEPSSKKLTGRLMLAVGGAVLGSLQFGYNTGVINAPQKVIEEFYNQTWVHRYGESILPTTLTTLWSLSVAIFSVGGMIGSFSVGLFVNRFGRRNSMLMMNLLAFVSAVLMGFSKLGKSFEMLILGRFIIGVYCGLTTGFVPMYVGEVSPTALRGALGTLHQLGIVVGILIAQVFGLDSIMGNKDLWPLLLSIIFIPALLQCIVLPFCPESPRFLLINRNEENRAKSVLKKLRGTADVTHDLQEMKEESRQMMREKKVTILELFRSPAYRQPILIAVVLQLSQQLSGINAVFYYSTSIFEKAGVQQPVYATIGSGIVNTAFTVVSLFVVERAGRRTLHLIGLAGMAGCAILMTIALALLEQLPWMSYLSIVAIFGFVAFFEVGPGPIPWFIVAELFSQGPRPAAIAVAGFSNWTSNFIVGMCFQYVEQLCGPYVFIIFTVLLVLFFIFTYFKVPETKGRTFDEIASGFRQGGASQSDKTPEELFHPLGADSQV

Target: human Galectin-3 (Gal3) (human) (UniProt P17931)
Experiment: ELISA, FLAG-tagged GLUT on coated Gal3

“GLUT1 protein tagged with FLAG (from UniProt P11166 1-492)” was tested, and the binding was “binds”.
